Experimental data as given in publication PMC12224988, “The MdHB7L–MdICE1L–MdHOS1 Module Fine‐Tunes Apple Cold Response via CBF‐Dependent and CBF‐Independent Pathways”.
Construct, isoform or probe ends are uncertain for at least one entry. For some assays here: Negatives hold for the conditions tested. At least one verdict was read from the data and is not stated in words by the source. For some assays here: A weaker result is weaker than the reference pair of the same experiment. For some assays here: Tags and fusion partners may be left off the protein sequences shown.

Tests used:
MdHB7L-HIS = molecular target: T1, MdHB7L-HIS (UniProt D9ZJ22); test: EMSA; conditions: Beyotime Chemiluminescent EMSA Kit per manufacturer, pH and temperature not given, recombinant protein, label: biotin
T1 sequence (looked up, limits assumed): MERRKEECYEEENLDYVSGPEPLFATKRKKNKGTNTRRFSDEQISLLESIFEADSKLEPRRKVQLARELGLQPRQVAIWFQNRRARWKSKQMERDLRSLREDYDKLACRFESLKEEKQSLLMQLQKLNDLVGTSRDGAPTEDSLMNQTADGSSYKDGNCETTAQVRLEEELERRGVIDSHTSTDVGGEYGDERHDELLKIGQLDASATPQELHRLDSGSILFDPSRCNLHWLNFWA

MdICE1L-HIS = test: EMSA; conditions: Beyotime Chemiluminescent EMSA Kit per manufacturer; pH and temperature not given; recombinant protein; protein details: His (pET28a); label: biotin

| Sequence | binding result (MdHB7L-HIS; MdICE1L-HIS added) | binding result (MdICE1L-HIS) | binding result (MdHB7L-HIS; MdHOS1-GST added) |
| --- | --- | --- | --- |
| AAAGCATAGAAATAATTCCAAAACTATTTT (double strand) [pMdCBF1-HB-P1] | binds more weakly | no binding | – |
| CACTGTCGATTTAAATCATTCATACAGAAA (double strand) [pMdCBF3-HB-P2] | binds more weakly | no binding | – |
| TTAGGATAGTAATTGGTAACTCTCGACTCC (double strand) [pMdERDL6-1-1-HB] | – | – | binds more weakly |
| GAAATTAAGTACTAATTGTTCAGTACCAAG (double strand) [pMdCBF1-HB-P4] | binds more weakly | no binding | – |
| TAGCAACTAATTAAGTCTTCAATAATTTCTAAAAGCA (double strand) [pMdCBF1-HB-P3] | binds more weakly | no binding | – |
| GCACCAAGTCCAATTATTGAGCAATTAATG (double strand) [pMdPAP2-2-HB] | – | – | binds more weakly |
| CTATTATTATTAATTACTTTTTTCACATAA (double strand) [pMdCBF1-HB-P2] | binds more weakly | no binding | – |
| AAAAATAAAATGATTAGCCTGGCGCATCTA (double strand) [pMdCBF3-HB-P1] | binds more weakly | no binding | – |
